According to EP4763862A1:
Results are given in words; binding and its absence hold for the method and conditions named. Some results given as binding are weak or reduced against the parent protein; the word gives no strength.

T1: human B7-H3 on CHO-S-human B7-H3 cells (human) (UniProt Q5ZPR3)
T1 sequence (looked up): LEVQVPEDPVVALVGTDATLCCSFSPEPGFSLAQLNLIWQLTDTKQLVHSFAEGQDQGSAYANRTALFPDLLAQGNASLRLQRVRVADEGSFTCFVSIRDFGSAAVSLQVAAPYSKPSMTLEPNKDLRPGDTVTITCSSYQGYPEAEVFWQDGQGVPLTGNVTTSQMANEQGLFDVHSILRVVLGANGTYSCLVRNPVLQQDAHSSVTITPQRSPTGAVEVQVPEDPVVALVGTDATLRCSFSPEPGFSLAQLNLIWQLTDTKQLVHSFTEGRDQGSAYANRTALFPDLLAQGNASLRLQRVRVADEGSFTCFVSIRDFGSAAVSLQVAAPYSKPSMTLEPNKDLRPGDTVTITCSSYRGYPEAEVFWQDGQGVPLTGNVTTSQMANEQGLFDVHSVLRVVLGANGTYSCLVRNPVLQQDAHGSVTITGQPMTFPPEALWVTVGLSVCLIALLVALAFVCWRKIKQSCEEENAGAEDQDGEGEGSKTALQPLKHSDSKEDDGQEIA

B1: 16-B6-G3-E10 (antibody, human IgG1, kappa, V domains shown)
VH: EVQLQQSGTELVRPGALVKLSCKTSGFNIKDCYMHWVKQRPEQGLEWIGWIDPENGNTIYDPKFQGKATITADTSSYTAYLQLSSLTSEDTAVYYCARSRARGYAMDYWGQGTSVTVTS
VL: DIVMTQSPASLAVSLGQRATISCRASQSVSTSSYSYMHWYRQIPGQPPKLLIKYASNLESGVPARFSGSGSGTDFTLNIHPVEEEDTATYYCQHSWEIPRTFGGGTKLELKR
B2: 48-B4-D3-E3 (antibody, human IgG1, kappa, V domains shown)
VH: EVQLQESGGDLVKPGGSLKLSCAASGFTFSSYGMSWVRQTPEKRLEWVASISGSGSYTYYPDSLKGRFTISRDNAKNNLYLQMSSLRSEDTALYYCARQDGYWYFDVWGAGTTVTVSS
VL: DILMTQTPKFLLVSAGDRVTITCKASQSVSNDVAWYQQKPGQSPQLLIYYASHRYTGVPDRFTGSGYGTDFTFTISTVQAEDLAVYFCQQDNSSPLTFGAGTKLELKR
B3: 41-G9-G4-D3 (antibody, human IgG1, kappa, V domains shown)
VH: EVQVVESGPELVKPGASVKMSCKTSAYTFSDSVLSWVKQRTGQGLEWIGEIYPRGNVTHYNGKFKGKATLTADKSSNTAFMHFSSLTSEDSAVYFCARWNNFFFDYWGQGSTLTVSS
VL: DIVMTQPPLSLPVTLGDLASISCRSSQSLVHSNGITYLHWYLQKPGQSPKLLIYKVSNRFSGVPDRFSGSGSGTDFTLKISRVEAEDLGVYFCSQSTHFPWTFGGGTKLELKR
B4: 19-F1-E9-B11 (antibody, human IgG1, kappa, V domains shown)
VH: EVQLQQSGPSLVKPSQTLSLTCSVTGGSITSFYWNWIRKFPGNKLEYMGYISSSGSTYYNPSLKSRISITRDTSKNQSYLQLNSVTAEDTATYYCARGGVHYGFGDYWGQGTSVTVSS
VL: DIVMTQSAPSVPVTPGESVSISCRSSKSLLHSNGNTYLYWFLQRPGQSPQLLIYRMSNLASGVPDRFSGSGSGTAFTLRISRVEAEDVGVYYCMQHLEYPLTFGAGTKLELKR
B5: 9-F1-D9-F10 (antibody, human IgG1, kappa, V domains shown)
VH: EVQLVESGGGLVQPGGSLRVSCATSGFTFSDYYMSWVRQPPGKALEWLGFIRNKINGYTTEYSASVKGRFTISRDNSQSILYLQMNTLRAEDSATYYCTRDSSQRPFAYWGQGTLVTVSA
VL: DIVMTQSPSSLSVSAGEKVTMTCKSSQSLLNSRSQKNFLAWYQQKPGQPPKLLIYGASTRESGVPDRFTGSGSGTDFTLTISNVQAEDLAVYYCQNDLTYPLTFGAGTKLELKR
B6: 16-D10-E1-E1 (antibody, human IgG1, kappa, V domains shown)
VH: EVQLQQSGPELVRPGVSVKISCKGSGYTFTDYAMHWVKQSHAKSLEWIGVINTYSGNTYYSQKFKGKATMTVDKSSSTAYMELARLTSEDSAIYYCARGAGYFPYWYFDVWGAGTTVTVSS
VL: DIQMIQSPSYLAASPGETITINCRASKSISKYLAWYQEKPGKTNKLLIYSGSTLQSGIPSRFSGSGSGTDFTLTISSLEPEDFAMYYCQQHYEYPYTFGGGTKLEIKR
B7: 10-A3-C5-C8 (antibody, human IgG1, kappa, V domains shown)
VH: EVQLVESGGGLVKPGGSLKLSCAVSGFTFSSYAMSWVRQTPEKRLEWVASITDGGITFYSDSLKGRFTISRDNSGNILYLQMSSLRSEDTAMYFCARGSITTDWYFDVWGAGTTVTVSS
VL: DIVMTQAPLSLPVSLGDQASISCRSSQSLVHSNGNTYLHWYLQKPGQSPKLLIYKVSNRFSGVPDRFSGSGSGTDFTLKISRVEAEDLGVYFCSQSTHVPPYTFGGGTKLEIKR
B8: 9-A2-G3-H11 (antibody, human IgG1, kappa, V domains shown)
VH: EVQLQQSGPELVRPGESVKISCKGSGYTFTDYAIHWVKQSHAKSLEWIGVISTYYDNTYYNQKFKGRATMTVDKSSSTAYMELARLTSEDSAIYYCARGYGSSFNWYFDVWGAGTTVTVSS
VL: DIVMTQSPSSLAVSAGEKVTMSCKSSQSLLNSRTRKNYLAWYQQKPGQSPKLLIYWASTRESGVPDRFTGSGSGTDFTLTITSVQAEDLAVYYCKQSYNLYTFGGGTKLEIKR
B9: 28-B1-E8-C11 (antibody, human IgG1, kappa, V domains shown)
VH: EVKLVESGAVLVKPGASVKISCKASGYTLSDFNMDWVKQSQGKSLEWVGDINPNYDTITYNQKFRGKATLTVDRSSNTAYMELRSLTSEDSAVYYCARGELGRYFYVWGAGTTVTVSS
VL: DIQLTQPPASLSASVGETVTITCRASENVYSYLAWYRQKQGRSPQLLVYNAKTLPEGVPSRFSGSGSGTQFSLKINSLQTEDLGDYYCQHHYGTPWTFGGGTKLEIKR
B10: 28-F8-C4-A8 (antibody, human IgG1, kappa, V domains shown)
VH: EVQLQQSGAELVQPGASMKLSCKTSGYTFTTYDINWVRQRPEQGLEWIGWIFPGDGTTKYNEKFKGKATLTTDKSSSTAYMHLSRLTSEDSVVYFCARTPWFDYWGQGTTLTVSS
VL: DIVLSQSPAIMSASPGEKVIMTCSASSSISYMYWYQQKPGTSPKRWIYDTSKLASGVPARFSVSGSGTSYSLTISSMEAEDAATYYCHQRSSYPTFGGGTKLELKR

Target: T1, human B7-H3 on CHO-S-human B7-H3 cells (human)
Test: flow cytometry on CHO-S-human B7-H3 cells, antibody 1 µg/ml

binding, binds:
B1, B2, B3, B4, B5, B6, B7, B8, B9, B10
